According to the supplement of paper PMC10849652:
The other results are listed elsewhere or left out. Residues, ends and D or L forms follow the SMILES beside them. *: point of attachment. Cbz = O=C(OCc1ccccc1)*

Chains of the proteins cited; added tags and fusions are not shown. Lines headed by an entry give the natural chain unless they say otherwise; changes in a name come on top.
UniProt O43542: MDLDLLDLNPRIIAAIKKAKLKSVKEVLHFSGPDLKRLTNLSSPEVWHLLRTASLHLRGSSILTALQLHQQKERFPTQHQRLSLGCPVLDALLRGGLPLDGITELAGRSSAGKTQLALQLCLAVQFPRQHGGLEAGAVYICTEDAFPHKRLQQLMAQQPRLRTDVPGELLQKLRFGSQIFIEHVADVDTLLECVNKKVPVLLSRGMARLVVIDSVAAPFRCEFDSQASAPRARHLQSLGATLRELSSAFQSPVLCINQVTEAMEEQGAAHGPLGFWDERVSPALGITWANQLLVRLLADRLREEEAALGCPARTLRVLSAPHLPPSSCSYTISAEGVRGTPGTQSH
UniProt Q9H0D6: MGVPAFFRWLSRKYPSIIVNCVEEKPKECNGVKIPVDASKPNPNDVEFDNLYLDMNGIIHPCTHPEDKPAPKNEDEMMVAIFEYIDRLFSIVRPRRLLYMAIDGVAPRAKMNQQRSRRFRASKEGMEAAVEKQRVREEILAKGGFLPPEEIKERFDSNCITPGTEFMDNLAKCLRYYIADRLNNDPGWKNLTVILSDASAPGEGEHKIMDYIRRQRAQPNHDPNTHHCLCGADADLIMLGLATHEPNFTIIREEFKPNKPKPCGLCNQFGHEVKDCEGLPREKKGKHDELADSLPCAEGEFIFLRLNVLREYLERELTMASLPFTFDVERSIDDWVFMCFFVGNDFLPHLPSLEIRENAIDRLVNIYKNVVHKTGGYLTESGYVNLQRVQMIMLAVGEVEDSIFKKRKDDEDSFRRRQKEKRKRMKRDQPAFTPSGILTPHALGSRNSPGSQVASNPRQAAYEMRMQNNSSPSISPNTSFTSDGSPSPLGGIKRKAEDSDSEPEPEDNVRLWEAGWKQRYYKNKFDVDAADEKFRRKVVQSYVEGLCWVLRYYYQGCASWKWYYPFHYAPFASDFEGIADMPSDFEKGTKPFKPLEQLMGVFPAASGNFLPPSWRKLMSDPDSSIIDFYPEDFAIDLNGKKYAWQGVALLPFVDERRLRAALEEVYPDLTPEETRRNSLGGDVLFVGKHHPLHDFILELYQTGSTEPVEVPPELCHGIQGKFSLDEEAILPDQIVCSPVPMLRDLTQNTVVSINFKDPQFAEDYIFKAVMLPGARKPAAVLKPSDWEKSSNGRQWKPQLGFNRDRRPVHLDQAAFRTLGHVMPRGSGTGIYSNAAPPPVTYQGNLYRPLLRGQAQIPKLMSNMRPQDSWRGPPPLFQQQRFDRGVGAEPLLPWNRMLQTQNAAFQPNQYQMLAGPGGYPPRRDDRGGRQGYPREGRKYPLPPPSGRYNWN
UniProt P54577: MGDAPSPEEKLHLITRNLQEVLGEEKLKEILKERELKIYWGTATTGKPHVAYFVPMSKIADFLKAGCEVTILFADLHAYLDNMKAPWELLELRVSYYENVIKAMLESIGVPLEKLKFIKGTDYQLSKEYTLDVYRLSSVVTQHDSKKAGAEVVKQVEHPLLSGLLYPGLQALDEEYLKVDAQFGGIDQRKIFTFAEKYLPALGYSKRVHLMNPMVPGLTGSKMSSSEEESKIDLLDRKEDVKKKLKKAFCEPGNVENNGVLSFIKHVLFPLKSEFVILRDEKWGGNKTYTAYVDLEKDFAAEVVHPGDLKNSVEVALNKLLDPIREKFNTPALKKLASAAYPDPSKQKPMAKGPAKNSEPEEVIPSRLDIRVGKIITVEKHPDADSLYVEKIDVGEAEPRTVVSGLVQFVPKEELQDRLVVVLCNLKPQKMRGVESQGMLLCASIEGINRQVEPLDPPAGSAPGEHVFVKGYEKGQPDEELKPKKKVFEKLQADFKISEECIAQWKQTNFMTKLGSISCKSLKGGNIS
UniProt Q5BJH7: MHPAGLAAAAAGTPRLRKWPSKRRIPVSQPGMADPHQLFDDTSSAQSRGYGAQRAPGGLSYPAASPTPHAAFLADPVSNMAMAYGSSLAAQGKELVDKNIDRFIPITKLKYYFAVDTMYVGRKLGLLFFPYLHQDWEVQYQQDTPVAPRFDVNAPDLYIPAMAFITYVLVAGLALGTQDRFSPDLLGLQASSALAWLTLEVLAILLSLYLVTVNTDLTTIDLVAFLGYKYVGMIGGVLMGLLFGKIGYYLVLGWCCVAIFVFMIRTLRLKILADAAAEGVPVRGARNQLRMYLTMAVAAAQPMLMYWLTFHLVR
UniProt O75362: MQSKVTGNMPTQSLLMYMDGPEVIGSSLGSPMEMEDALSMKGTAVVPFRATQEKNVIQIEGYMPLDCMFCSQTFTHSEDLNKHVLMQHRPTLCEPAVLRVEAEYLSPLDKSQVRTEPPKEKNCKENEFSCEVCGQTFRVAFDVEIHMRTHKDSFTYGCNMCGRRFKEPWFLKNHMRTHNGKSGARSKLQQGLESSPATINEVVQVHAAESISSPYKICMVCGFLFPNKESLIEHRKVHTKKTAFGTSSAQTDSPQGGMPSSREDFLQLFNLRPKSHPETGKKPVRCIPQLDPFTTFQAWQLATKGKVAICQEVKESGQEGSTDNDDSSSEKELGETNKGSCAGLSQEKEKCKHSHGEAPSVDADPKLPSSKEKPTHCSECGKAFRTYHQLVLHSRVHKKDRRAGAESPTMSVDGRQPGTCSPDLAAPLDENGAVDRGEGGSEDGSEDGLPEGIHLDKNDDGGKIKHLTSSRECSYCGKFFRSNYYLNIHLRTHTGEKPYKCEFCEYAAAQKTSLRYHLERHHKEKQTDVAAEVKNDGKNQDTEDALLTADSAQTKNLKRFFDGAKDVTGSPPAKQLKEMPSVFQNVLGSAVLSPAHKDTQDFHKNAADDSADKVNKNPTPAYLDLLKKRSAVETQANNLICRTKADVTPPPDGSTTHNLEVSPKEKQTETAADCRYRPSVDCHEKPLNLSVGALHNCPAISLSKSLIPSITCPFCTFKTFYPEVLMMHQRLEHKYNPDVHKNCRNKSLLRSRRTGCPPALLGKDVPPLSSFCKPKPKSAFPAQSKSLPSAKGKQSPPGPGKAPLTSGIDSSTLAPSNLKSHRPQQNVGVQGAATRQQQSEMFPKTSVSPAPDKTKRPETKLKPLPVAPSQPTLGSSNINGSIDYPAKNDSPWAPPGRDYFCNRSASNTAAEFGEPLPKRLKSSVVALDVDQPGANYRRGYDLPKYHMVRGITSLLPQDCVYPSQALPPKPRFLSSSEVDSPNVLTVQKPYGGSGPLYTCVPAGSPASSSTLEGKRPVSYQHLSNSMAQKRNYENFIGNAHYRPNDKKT
UniProt Q9C0E2: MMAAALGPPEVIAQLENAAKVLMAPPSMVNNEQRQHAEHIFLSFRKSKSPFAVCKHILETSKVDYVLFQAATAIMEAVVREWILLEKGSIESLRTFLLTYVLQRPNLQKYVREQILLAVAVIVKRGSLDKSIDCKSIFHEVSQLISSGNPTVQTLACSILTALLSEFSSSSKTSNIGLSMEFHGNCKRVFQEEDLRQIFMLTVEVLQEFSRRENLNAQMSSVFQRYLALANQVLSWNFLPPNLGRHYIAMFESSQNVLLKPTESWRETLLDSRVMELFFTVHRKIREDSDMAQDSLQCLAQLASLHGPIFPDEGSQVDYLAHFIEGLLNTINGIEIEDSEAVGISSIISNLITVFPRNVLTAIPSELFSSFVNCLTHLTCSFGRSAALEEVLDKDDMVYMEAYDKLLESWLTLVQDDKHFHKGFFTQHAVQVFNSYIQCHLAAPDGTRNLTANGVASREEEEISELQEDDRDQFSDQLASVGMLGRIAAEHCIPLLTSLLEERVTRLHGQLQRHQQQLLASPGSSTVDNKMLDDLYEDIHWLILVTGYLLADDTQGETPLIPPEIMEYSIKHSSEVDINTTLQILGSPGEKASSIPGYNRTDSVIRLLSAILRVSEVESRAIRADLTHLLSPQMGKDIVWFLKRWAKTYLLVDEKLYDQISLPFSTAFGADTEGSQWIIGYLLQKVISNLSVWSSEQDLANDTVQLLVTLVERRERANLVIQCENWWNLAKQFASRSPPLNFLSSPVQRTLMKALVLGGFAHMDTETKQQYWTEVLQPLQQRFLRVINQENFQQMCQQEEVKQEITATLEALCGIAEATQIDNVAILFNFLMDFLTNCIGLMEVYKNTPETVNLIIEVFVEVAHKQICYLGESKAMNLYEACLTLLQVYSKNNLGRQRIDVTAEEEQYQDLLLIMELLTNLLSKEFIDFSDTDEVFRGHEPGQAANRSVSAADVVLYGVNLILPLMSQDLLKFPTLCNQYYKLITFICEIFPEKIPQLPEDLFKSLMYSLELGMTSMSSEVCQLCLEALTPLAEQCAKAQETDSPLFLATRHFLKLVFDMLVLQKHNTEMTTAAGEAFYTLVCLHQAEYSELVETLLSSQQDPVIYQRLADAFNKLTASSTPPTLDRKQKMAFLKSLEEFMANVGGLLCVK
UniProt Q9NRH1: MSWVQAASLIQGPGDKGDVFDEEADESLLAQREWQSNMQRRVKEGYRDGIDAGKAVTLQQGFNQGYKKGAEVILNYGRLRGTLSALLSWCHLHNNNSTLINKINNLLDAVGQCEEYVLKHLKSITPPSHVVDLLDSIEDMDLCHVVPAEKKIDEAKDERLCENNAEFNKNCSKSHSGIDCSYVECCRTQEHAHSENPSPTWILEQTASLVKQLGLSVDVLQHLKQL
UniProt Q9ULJ6: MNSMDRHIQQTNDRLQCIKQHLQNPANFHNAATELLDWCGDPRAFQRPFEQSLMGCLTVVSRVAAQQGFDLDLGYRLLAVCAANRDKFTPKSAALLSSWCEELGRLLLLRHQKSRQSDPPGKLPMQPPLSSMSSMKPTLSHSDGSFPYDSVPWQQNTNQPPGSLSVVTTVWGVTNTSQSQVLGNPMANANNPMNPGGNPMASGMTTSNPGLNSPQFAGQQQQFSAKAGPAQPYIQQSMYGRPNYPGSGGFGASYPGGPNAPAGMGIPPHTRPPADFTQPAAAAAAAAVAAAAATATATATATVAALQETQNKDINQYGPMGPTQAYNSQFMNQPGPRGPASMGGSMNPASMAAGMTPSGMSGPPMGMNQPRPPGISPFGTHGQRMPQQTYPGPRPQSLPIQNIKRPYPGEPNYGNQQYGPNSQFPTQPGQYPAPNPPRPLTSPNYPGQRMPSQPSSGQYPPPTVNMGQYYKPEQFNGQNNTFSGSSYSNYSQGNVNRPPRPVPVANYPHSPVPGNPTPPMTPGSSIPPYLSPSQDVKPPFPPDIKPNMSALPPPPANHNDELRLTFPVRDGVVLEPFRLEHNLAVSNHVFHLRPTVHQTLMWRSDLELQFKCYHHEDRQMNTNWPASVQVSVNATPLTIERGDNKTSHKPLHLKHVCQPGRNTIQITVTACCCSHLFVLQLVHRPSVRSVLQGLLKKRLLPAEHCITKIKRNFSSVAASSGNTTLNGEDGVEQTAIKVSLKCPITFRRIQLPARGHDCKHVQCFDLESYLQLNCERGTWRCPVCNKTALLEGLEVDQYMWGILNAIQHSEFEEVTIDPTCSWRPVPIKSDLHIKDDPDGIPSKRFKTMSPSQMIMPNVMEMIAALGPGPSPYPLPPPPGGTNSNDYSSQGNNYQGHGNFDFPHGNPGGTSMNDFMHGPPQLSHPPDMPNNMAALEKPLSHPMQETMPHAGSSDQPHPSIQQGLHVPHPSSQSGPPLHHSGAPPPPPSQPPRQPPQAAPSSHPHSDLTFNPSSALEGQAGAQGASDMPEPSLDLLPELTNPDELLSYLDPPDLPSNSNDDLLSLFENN
UniProt Q7Z2W4: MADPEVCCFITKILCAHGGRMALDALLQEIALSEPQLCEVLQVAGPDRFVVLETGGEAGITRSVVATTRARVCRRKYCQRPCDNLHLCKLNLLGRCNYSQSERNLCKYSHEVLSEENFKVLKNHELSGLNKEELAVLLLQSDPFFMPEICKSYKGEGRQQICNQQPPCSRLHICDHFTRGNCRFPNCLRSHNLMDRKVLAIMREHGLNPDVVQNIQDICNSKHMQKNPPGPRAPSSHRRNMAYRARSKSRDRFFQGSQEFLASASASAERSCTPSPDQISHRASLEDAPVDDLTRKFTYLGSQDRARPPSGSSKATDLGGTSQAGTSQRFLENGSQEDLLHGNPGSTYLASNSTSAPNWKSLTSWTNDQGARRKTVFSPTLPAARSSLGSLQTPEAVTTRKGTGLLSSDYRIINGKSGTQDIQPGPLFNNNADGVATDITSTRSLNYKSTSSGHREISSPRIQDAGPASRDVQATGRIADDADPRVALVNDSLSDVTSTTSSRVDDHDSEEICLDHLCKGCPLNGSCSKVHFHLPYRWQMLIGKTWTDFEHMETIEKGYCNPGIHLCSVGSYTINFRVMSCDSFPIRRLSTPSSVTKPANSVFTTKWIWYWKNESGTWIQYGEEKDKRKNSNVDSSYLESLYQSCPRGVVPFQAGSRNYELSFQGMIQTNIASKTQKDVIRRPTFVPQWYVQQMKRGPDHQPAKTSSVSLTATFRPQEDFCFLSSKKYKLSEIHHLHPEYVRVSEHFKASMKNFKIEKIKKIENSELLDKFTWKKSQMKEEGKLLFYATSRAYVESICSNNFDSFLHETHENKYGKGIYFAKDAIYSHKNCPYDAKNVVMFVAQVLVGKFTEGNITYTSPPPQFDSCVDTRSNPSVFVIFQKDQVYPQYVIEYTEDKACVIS

Assays:
Assay in all cases: log2 fold change, soluble protein after heating vs DMSO (PISA); higher = thermal stabilisation; K562 cells, 10 uM, 30 min; active = over 0.2 and 3.5 SD of the protein, either way, in both replicates (recomputed)
erlotinib = compound: C#Cc1cccc(Nc2ncnc3cc(OCCOC)c(OCCOC)cc23)c1 [erlotinib]
Method in brief: (§1)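 K562 cells (2×10^6 cells/mL) were treated with 10 μM compound for 30 min, and aliquots were heated for 3 min over 48°C-58°C. Pooled aliquots were extracted in PBS with 0.5% NP-40 at 4°C, and the supernatant after 21,000xg for 90 min was measured by TMTpro 16plex LC-MS/MS with channel sums equalised. Reported thermal stability, relative to control samples and from duplicates, is a log2 fold change.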

[1] = compound: C/C(=N\NC(=O)C1=CC(=CC=C1)S(=O)(=O)N2CCOCC2)/C3=C(C=CC(=C3)Cl)O
Method in brief: as §1

[2] = compound: C1=CC(=C(C=C1Cl)C2=NC3=NC=CN=C3C(=N2)NC4=CC=NC=C4)F
Method in brief: as §1

[3] = compound: C1=CC(=CC=C1C2=NC3=C(N2)C=C(C=C3)C(=O)N)OC4=CC=C(C=C4)Cl
Method in brief: as §1

[4] = compound: C1=CC2=C(C=CC(=C2)/C=C\3/C(=O)NC(=NCC4=CC=CS4)S3)N=C1
Method in brief: as §1

[5] = compound: C1=CC2=NC=CN=C2C=C1/C=C/3\C(=O)NC(=O)S3
Method in brief: as §1

[6] = compound: C1=CC=C(C=C1)C2=NC(=C(N2)C3=CC=NC=C3)C4=CC(=C(C=C4)Cl)O
Method in brief: as §1

[7] = compound: C1=CC=C2C(=C1)C3=NNC4=CC=CC(=C43)C2=O
Method in brief: as §1

[8] = compound: C1CCN(C1)C(=O)NC2=CC=CC(=C2)NC3=NC=C(C(=N3)NCCC4=CN=CN4)Br
Method in brief: as §1

[9] = compound: C1CN(CCC1(CC2=CC=C(C=C2)Cl)N)C3=NC=NC4=C3C=CN4
Method in brief: as §1

IRAK-1-4 Inhibitor I = compound: C1COCCN1CCN2C3=CC=CC=C3N=C2NC(=O)C4=CC(=CC=C4)[N+](=O)[O-] [IRAK-1-4 Inhibitor I]
Method in brief: as §1

ibrutinib = compound: C=CC(=O)N1CCC[C@@H](n2nc(-c3ccc(Oc4ccccc4)cc3)c3c(N)ncnc32)C1 [ibrutinib]
Method in brief: as §1

[10] = compound: CC(=O)c1cnc2ccc(-c3cc(Cl)c(O)c(Cl)c3)nc2c1N[C@H]1CC[C@H](CN(C)C)CC1
Method in brief: as §1

ralimetinib = compound: CC(C)(C)Cn1c(N)nc2ccc(-c3[nH]c(C(C)(C)C)nc3-c3ccc(F)cc3)nc21 [ralimetinib]
Method in brief: as §1

[11] = compound: CC(C)(O)CC(=O)NCCn1ccc2ncnc(Nc3ccc(Oc4cccc(C(F)(F)F)c4)c(Cl)c3)c21
Method in brief: as §1

[12] = compound: CC(C)C1=C2N=C(C=C(N2N=C1)NCC3=CC=CC=C3)NCCCCCCN
Method in brief: as §1

[13] = compound: CC(C)C[C@@H](C=O)NC(=O)[C@H](CC(C)C)NC(=O)[C@H](CC(C)C)NC(=O)OCc1ccccc1
Method in brief: as §1

pinometostat = compound: CC(C)N(C[C@H]1O[C@@H](n2cnc3c(N)ncnc32)[C@H](O)[C@@H]1O)[C@H]1C[C@@H](CCc2nc3cc(C(C)(C)C)ccc3[nH]2)C1 [pinometostat]
Method in brief: as §1

[14] = compound: CC1=C(C(CC(=O)N1)C2=CC=C(C=C2)C(F)(F)F)C(=O)NC3=C(C=C4C(=C3)C=NN4)F
Method in brief: as §1

[15] = compound: CC1=C(C2=C(C=C1)C(=O)C3=CC=CC=C3N2CCCN)C
Method in brief: as §1

| Target | log2 fold change (erlotinib) | log2 fold change [1] | log2 fold change [2] | log2 fold change [3] | log2 fold change [4] | log2 fold change [5] | log2 fold change [6] | log2 fold change [7] | log2 fold change [8] | log2 fold change [9] | log2 fold change (IRAK-1-4 Inhibitor I) | log2 fold change (ibrutinib) | log2 fold change [10] | log2 fold change (ralimetinib) | log2 fold change [11] | log2 fold change [12] | log2 fold change [13] | log2 fold change (pinometostat) | log2 fold change [14] | log2 fold change [15] |
| --- | --- | --- | --- | --- | --- | --- | --- | --- | --- | --- | --- | --- | --- | --- | --- | --- | --- | --- | --- | --- |
| XRCC3 (UniProt O43542) | inactive: 0.043 | inactive: 0.05 | inactive: 0.034 | inactive: -0.068 | inactive: 0.003 | inactive: -0.01 | inactive: 0.03 | inactive: -0.001 | inactive: -0.02 | inactive: 0.04 | inactive: -0.014 | inactive: 0.023 | inactive: 0.056 | inactive: -0.021 | inactive: -0.121 | inactive: -0.031 | inactive: 0.002 | inactive: 0.029 | inactive: -0.033 | inactive: 0.036 |
| XRN2 (UniProt Q9H0D6) | inactive: 0.023 | inactive: -0.082 | inactive: -0.069 | inactive: 0.035 | inactive: 0.034 | inactive: 0.009 | inactive: -0.012 | inactive: -0.085 | inactive: 0.022 | inactive: -0.03 | inactive: -0.052 | inactive: 0.055 | inactive: -0.01 | inactive: 0.028 | inactive: 0.023 | inactive: -0.02 | inactive: 0.04 | inactive: 0.006 | inactive: 0.06 | inactive: 0.128 |
| ZCCHC8 (UniProt Q6NZY4) | inactive: -0.045 | inactive: 0.007 | inactive: -0.005 | inactive: 0.028 | inactive: -0.016 | inactive: 0.058 | inactive: -0.008 | inactive: 0.046 | inactive: -0.01 | inactive: -0.057 | inactive: 0.052 | inactive: 0 | inactive: 0.045 | inactive: -0.027 | inactive: -0.038 | inactive: -0.048 | inactive: 0.031 | inactive: 0.042 | inactive: -0.017 | inactive: 0.062 |
| YARS (UniProt P54577) | inactive: 0.02 | inactive: 0.017 | inactive: -0.046 | inactive: -0.052 | inactive: 0.072 | inactive: 0.033 | inactive: 0.027 | inactive: -0.015 | inactive: -0.049 | inactive: -0.106 | inactive: -0.063 | inactive: -0.035 | inactive: 0.004 | inactive: 0.1 | inactive: -0.066 | inactive: -0.178 | inactive: 0.024 | inactive: 0.106 | inactive: -0.01 | inactive: 0.048 |
| ZNF207 isoform 4 (UniProt O43670) | inactive: -0.016 | inactive: 0.022 | inactive: 0.035 | inactive: 0.005 | inactive: -0.084 | inactive: -0.014 | inactive: 0.006 | inactive: 0.026 | inactive: -0.028 | inactive: -0.06 | inactive: 0 | inactive: 0.082 | inactive: 0.003 | inactive: -0.04 | inactive: -0.04 | inactive: 0.081 | inactive: -0.02 | inactive: -0.034 | inactive: 0.007 | inactive: 0.015 |
| YIF1B (UniProt Q5BJH7) | inactive: 0.062 | inactive: -0.059 | inactive: -0.054 | inactive: -0.009 | inactive: 0.066 | inactive: -0.004 | inactive: -0.006 | inactive: 0.015 | inactive: 0.004 | inactive: 0.016 | inactive: 0.015 | inactive: 0.056 | inactive: -0.03 | inactive: -0.018 | inactive: -0.071 | inactive: -0.087 | inactive: 0.069 | inactive: -0.048 | inactive: 0.032 | inactive: 0.078 |
| ZNF217 (UniProt O75362) | inactive: 0.001 | inactive: 0.074 | inactive: 0.168 | inactive: 0.015 | inactive: 0.007 | inactive: 0.007 | inactive: -0.014 | inactive: 0.03 | inactive: 0.01 | inactive: 0.197 | inactive: 0.052 | inactive: -0.028 | inactive: -0.125 | inactive: -0.012 | inactive: -0.122 | inactive: -0.034 | inactive: 0.024 | inactive: 0.002 | – | inactive: -0.142 |
| XPNPEP1 isoform 3 (UniProt Q9NQW7) | inactive: -0.005 | inactive: -0.069 | inactive: 0.067 | inactive: 0.022 | inactive: 0.076 | inactive: -0.003 | inactive: 0.048 | inactive: 0.04 | inactive: 0 | inactive: 0.033 | inactive: 0.07 | inactive: -0.002 | inactive: -0.011 | inactive: -0.03 | inactive: -0.016 | inactive: -0.135 | inactive: -0.073 | inactive: -0.006 | – | inactive: 0.045 |
| XPO4 (UniProt Q9C0E2) | inactive: -0.011 | inactive: 0.008 | inactive: 0.031 | inactive: -0.01 | inactive: 0.041 | inactive: 0.077 | inactive: -0.018 | inactive: -0.042 | inactive: 0.022 | inactive: -0.019 | inactive: 0.017 | inactive: -0.03 | inactive: 0.065 | inactive: -0.035 | inactive: -0.07 | inactive: -0.049 | inactive: -0.037 | inactive: -0.018 | inactive: -0.003 | inactive: -0.08 |
| YAE1 (UniProt Q9NRH1) | inactive: 0.055 | inactive: -0.051 | inactive: 0.007 | inactive: 0 | inactive: -0.018 | inactive: -0.037 | inactive: -0.015 | inactive: -0.048 | inactive: -0.084 | inactive: -0.022 | inactive: 0.103 | inactive: -0.008 | inactive: 0.078 | inactive: 0.023 | inactive: 0.072 | inactive: 0.057 | inactive: 0.007 | inactive: 0.011 | – | inactive: 0.022 |
| XRCC5 (UniProt P13010) | inactive: 0.103 | inactive: 0.178 | inactive: -0.012 | inactive: -0.038 | inactive: 0.079 | inactive: 0.037 | inactive: 0.11 | inactive: -0.039 | inactive: -0.059 | inactive: -0.139 | inactive: -0.264 | inactive: -0.104 | inactive: -0.214 | inactive: 0.083 | inactive: -0.175 | active: -0.505 | inactive: 0.126 | inactive: -0.01 | – | inactive: -0.065 |
| ZMIZ1 (UniProt Q9ULJ6) | inactive: -0.007 | inactive: 0.036 | inactive: -0.01 | inactive: -0.036 | inactive: 0.009 | inactive: 0.038 | inactive: -0.063 | inactive: 0.002 | inactive: -0.038 | inactive: 0.049 | inactive: 0.044 | inactive: -0.015 | inactive: -0.015 | inactive: -0.007 | inactive: -0.039 | inactive: 0 | inactive: 0.003 | inactive: -0.045 | inactive: 0.021 | inactive: 0.025 |
| YOD1 (UniProt Q5VVQ6) | inactive: 0.064 | inactive: 0.053 | inactive: 0.021 | inactive: 0.019 | inactive: 0.066 | inactive: 0.129 | inactive: -0.02 | inactive: 0.012 | inactive: -0.012 | inactive: -0.037 | inactive: 0.019 | inactive: -0.016 | inactive: -0.04 | inactive: -0.001 | inactive: -0.113 | inactive: -0.153 | inactive: 0.045 | inactive: -0.021 | – | inactive: 0.063 |
| ZC3HAV1 (UniProt Q7Z2W4) | inactive: 0.035 | inactive: -0.009 | inactive: -0.474 | inactive: 0.045 | inactive: -0.041 | inactive: -0.071 | inactive: -0.142 | inactive: 0.065 | inactive: -0.046 | inactive: -0.012 | inactive: -0.116 | inactive: 0.059 | inactive: -0.101 | inactive: 0.185 | inactive: 0.084 | inactive: -0.067 | inactive: 0.11 | inactive: 0.375 | inactive: -0.076 | inactive: -0.248 |
| ZMYM3 (UniProt Q14202) | inactive: 0.042 | inactive: -0.004 | inactive: -0.012 | inactive: -0.02 | inactive: 0 | inactive: 0.079 | inactive: -0.033 | inactive: -0.093 | inactive: -0.042 | inactive: 0.117 | inactive: 0.057 | inactive: 0.03 | inactive: -0.004 | inactive: -0.07 | inactive: 0.084 | inactive: 0.04 | inactive: 0.09 | inactive: -0.011 | – | inactive: -0.058 |
| ZFP91 (UniProt Q96JP5) | inactive: -0.004 | inactive: -0.069 | inactive: 0.007 | inactive: 0.017 | inactive: -0.007 | inactive: 0.051 | inactive: -0.06 | inactive: -0.004 | inactive: 0.004 | inactive: -0.042 | inactive: -0.134 | inactive: 0 | inactive: 0.018 | inactive: -0.033 | inactive: 0.065 | inactive: 0.007 | inactive: 0 | inactive: 0.136 | – | active: -0.432 |

2 entries from above in another layout:
Target	log2 fold change (erlotinib)	log2 fold change [1]	log2 fold change [2]	log2 fold change [3]	log2 fold change [4]	log2 fold change [5]	log2 fold change [6]	log2 fold change [7]	log2 fold change [8]	log2 fold change [9]	log2 fold change (IRAK-1-4 Inhibitor I)	log2 fold change (ibrutinib)	log2 fold change [10]	log2 fold change (ralimetinib)	log2 fold change [11]	log2 fold change [12]	log2 fold change [13]	log2 fold change (pinometostat)	log2 fold change [14]	log2 fold change [15]
ZNF217 (UniProt O75362)	inactive: 0.001	inactive: 0.074	inactive: 0.168	inactive: 0.015	inactive: 0.007	inactive: 0.007	inactive: -0.014	inactive: 0.03	inactive: 0.01	inactive: 0.197	inactive: 0.052	inactive: -0.028	inactive: -0.125	inactive: -0.012	inactive: -0.122	inactive: -0.034	inactive: 0.024	inactive: 0.002	–	inactive: -0.142
ZMYM3 (UniProt Q14202)	inactive: 0.042	inactive: -0.004	inactive: -0.012	inactive: -0.02	inactive: 0	inactive: 0.079	inactive: -0.033	inactive: -0.093	inactive: -0.042	inactive: 0.117	inactive: 0.057	inactive: 0.03	inactive: -0.004	inactive: -0.07	inactive: 0.084	inactive: 0.04	inactive: 0.09	inactive: -0.011	–	inactive: -0.058
